# Reference: PubChem BioAssay AID540303 (National Center for Advancing Translational Sciences (NCATS), 2011)
# The whole screen tested about 330,000 compounds, of which about 1,000 (0.3%) were called active. Inconclusive means that the source gave no clear call. Such entries were picked first, then a sample of the others. Calls follow the shape of the dose curve; as a rule, active = well fitted inhibition curve with a large enough effect; inconclusive = small, poorly fitted or top-dose-only effect; inactive = no such curve, though single readings can be large or run the other way; tested in mouse RAW 264.7 cells. Potencies of inconclusive entries are doubtful fits and often do not repeat.
# Experiment: qHTS for Inhibitors of Cell Surface uPA Generation; also: nearly all actives have a fitted effect of over 55% in size
# Conditions: cell surface uPA generation assay; series mostly up to 38.3 µM
# How it was run: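 Murine RAW 264.7 cells are treated for 24 h with compound up to 38.3 uM final. Cell ATP, measured by ATP-Lite, remains high if blocking the uPA cascade prevents LF from reaching the cytoplasm.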
# Potency is read from the fitted curve at half-maximal effect.
row,SMILES,Potency
1,COc1ccc(C(=O)c2cc(OC)c(OC)c(OC)c2)cc1OC,inactive
2,CCCCCn1c(N(C)Cc2ccccc2)nc2c1c(=O)[nH]c(=O)n2C,"inconclusive: 8.91 µM [inhibitor, partial curve, poor fit]"
3,COCCCNC(=O)CC1C[C@H](C(=O)N2CCCCC2)[C@@]2(C)c3[nH]c4ccccc4c3CCN2C1=O (some centres not stated),"inconclusive: 10 µM [inhibitor, partial curve, poor fit]"
4,CCOC(=O)C1=C(C)N(CC)C(=S)NC1c1ccccc1OC(F)F (configuration not stated),inactive
5,CCc1ccc(O)c(N=Cc2ccccc2O)c1,"inconclusive: 2.82 µM [inhibitor, partial curve, poor fit]"
6,O=C1C2C(c3ccccc3)CC=CC2[C@H](c2cccc([N+](=O)[O-])c2)N1Cc1ccccc1 (some centres not stated),"inconclusive: 7.08 µM [inhibitor, partial curve, poor fit]"
7,Cc1ccc2cc(NC(=O)Cc3ccccc3)ccc2n1,"inconclusive: 12.6 µM [inhibitor, partial curve, poor fit]"
8,CN(C)CCOc1ccc(-c2c(-c3ccccc3)sc3ccccc23)cc1,"inconclusive: 10 µM [inhibitor, single point]"
9,CN(C(=O)c1ccco1)c1nnc(C23CC4CC(CC(C4)C2)C3)s1,"inconclusive: 6.31 µM [inhibitor, partial curve, poor fit]"
10,COc1ccccc1C(CNC(=O)c1cccc(S(=O)(=O)N2c3ccccc3CC2C)c1)N(C)C (configuration not stated),"inconclusive: 5.01 µM [inhibitor, full curve, poor fit]"
11,CCC(C)(C)C1CCC2(CC1)NC(=O)N(CC(=O)NCCCc1ccccc1)C2=O (configuration not stated),"inconclusive: 3.98 µM [inhibitor, partial curve, poor fit]"
12,CCOC(=O)c1cnc(C(F)(F)F)nc1Oc1ccccc1,"inconclusive: 5.01 µM [inhibitor, partial curve, poor fit]"
13,O=C(NCCc1ccccc1)Nc1ccc2c(c1)OCO2,"inconclusive: 7.94 µM [inhibitor, partial curve, poor fit]"
14,CC(=O)c1cccc(NC(=O)c2sc(Cl)nc2C)c1,"inconclusive: 5.01 µM [inhibitor, single point]"
15,Cc1nc2ccccc2n1Cc1ccc(Cl)cc1,"inconclusive: 5.01 µM [inhibitor, partial curve, poor fit]"
16,Cc1ccc(CNC(=O)Cn2nnc(C(=O)Nc3cc(C)ccc3C)c2N)cc1,inactive
17,OCCCNc1cc(-c2ccnc(Nc3cccc(Cl)c3)n2)ccn1,"inconclusive: 0.0025 µM [inhibitor, full curve, poor fit]"
18,COc1ccc(N2CCN(C(=O)Cc3ncc(C(F)(F)F)cc3Cl)CC2)cc1,inactive
19,CC(NC(=O)c1ccccc1NS(=O)(=O)c1ccc(CCC(=O)O)cc1)c1ccccc1 (configuration not stated),inactive
20,Nc1c(C(=O)N/N=C/c2ccc(F)cc2)oc2nc(-c3ccccc3)cc(-c3ccco3)c12,inactive
21,Cc1cccc(N(Cc2cc(=O)[nH]c3ccccc23)C(=O)CCl)c1,active: 7.08 µM

# Some values from the entries so far:
# Value for CCCCCn1c(N(C)Cc2ccccc2)nc2c1c(=O)[nH]c(=O)n2C under Potency: inconclusive: 8.91 µM [inhibitor, partial curve, poor fit]
# Value for Cc1cccc(N(Cc2cc(=O)[nH]c3ccccc23)C(=O)CCl)c1 under Potency: active: 7.08 µM

# Continuation:

row,SMILES,Potency
1,O=C1N[C@@H](Cc2c[nH]c3ccccc23)COC(=O)[C@H](Cc2ccc(F)cc2)C/C=C\C[C@H]1CC(=O)N(CCO)Cc1ccccc1,"inconclusive: 28.2 µM [inhibitor, single point]"
2,CCOC(=O)c1cnc(-n2nc(C)cc2C)nc1Nc1ccc(OC)cc1,inactive
3,COc1cc(C)c(C(C)C)cc1S(=O)(=O)n1cnc(C)c1,"inconclusive: 1.41 µM [inhibitor, full curve, poor fit]"
4,COc1ccc(/C=c2\s/c(=C\C(=O)C(C)(C)C)[nH]c2=O)cc1O,"inconclusive: 14.1 µM [inhibitor, partial curve, poor fit]"
5,O=c1[nH]c(C2CCCN(S(=O)(=O)c3ccccc3)C2)nc2c1nnn2Cc1ccccc1Br (configuration not stated),"inconclusive: 12.6 µM [inhibitor, partial curve, poor fit]"
6,CC(NCC(O)COCCC12CC3CC(CC(C3)C1)C2)c1ccccc1 (configuration not stated),"inconclusive: 12.6 µM [inhibitor, partial curve, poor fit]"
7,CC(=O)C[C@H]1c2cc(C(F)(F)F)ccc2S(=O)(=O)N1C1CCCC1,"inconclusive: 10 µM [inhibitor, single point]"
8,CC(C)[C@H](NC(=O)C1CC(=O)N(c2ccc3c(c2)OCCO3)C1)C(=O)NC1CCCC1 (some centres not stated),inactive
9,Cc1nn(C)c(C(=O)NNC(=S)NCc2ccco2)c1Br,"inconclusive: 11.2 µM [inhibitor, partial curve, poor fit]"
10,O=C(Nc1nc2cc(Cl)ccc2s1)C1CCCN(S(=O)(=O)c2cccc3cccnc23)C1 (configuration not stated),active: 12.6 µM
11,CN(Cc1c(F)cccc1Cl)C(=O)CNC(=O)c1sc2ccccc2c1Cl,inactive
12,Clc1ccc(-c2nnc(SCc3ccon3)o2)c(Cl)c1,"inconclusive: 7.08 µM [inhibitor, partial curve, poor fit]"
13,O=C(CS(=O)(=O)c1cn(CC(=O)N2CCCC2)c2ccccc12)Nc1ccccc1F,"inconclusive: 1.26 µM [inhibitor, partial curve, poor fit]"
14,CCc1ccc(NC(=O)c2cnn3ccccc23)cc1,"inconclusive: 11.2 µM [inhibitor, partial curve, poor fit]"
15,CNC(=S)N1CCN(c2nc3ccccc3s2)CC1,inactive
16,CCc1ccc(-c2cc(C(=O)N/N=C/c3c[nH]c4ccccc34)[nH]n2)cc1,inactive
17,CC(C)C(C(=O)Nc1ccncc1)c1ccc(Cl)cc1 (configuration not stated),"inconclusive: 28.2 µM [inhibitor, partial curve, poor fit]"
18,CC(=O)c1ccccc1Oc1ncnc(N)c1[N+](=O)[O-],inactive
19,COc1cccc(NC(=S)Nc2ccc(O)cc2)c1,"inconclusive: 3.55 µM [inhibitor, partial curve]"
20,COc1cc2cc(CCCO)oc(=O)c2cc1OC,"inconclusive: 22.4 µM [inhibitor, single point]"
21,CN(C(=O)CSc1nnc(-c2cccs2)n1N)c1ccccc1,"inconclusive: 0.891 µM [inhibitor, full curve, poor fit]"
